The results in this text go back to article PMC12160926.

The test deals with T1, hexokinase domain-containing 1 (HKDC1) (human (endogenous in HK2)) (UniProt Q2TB90).
T1 sequence: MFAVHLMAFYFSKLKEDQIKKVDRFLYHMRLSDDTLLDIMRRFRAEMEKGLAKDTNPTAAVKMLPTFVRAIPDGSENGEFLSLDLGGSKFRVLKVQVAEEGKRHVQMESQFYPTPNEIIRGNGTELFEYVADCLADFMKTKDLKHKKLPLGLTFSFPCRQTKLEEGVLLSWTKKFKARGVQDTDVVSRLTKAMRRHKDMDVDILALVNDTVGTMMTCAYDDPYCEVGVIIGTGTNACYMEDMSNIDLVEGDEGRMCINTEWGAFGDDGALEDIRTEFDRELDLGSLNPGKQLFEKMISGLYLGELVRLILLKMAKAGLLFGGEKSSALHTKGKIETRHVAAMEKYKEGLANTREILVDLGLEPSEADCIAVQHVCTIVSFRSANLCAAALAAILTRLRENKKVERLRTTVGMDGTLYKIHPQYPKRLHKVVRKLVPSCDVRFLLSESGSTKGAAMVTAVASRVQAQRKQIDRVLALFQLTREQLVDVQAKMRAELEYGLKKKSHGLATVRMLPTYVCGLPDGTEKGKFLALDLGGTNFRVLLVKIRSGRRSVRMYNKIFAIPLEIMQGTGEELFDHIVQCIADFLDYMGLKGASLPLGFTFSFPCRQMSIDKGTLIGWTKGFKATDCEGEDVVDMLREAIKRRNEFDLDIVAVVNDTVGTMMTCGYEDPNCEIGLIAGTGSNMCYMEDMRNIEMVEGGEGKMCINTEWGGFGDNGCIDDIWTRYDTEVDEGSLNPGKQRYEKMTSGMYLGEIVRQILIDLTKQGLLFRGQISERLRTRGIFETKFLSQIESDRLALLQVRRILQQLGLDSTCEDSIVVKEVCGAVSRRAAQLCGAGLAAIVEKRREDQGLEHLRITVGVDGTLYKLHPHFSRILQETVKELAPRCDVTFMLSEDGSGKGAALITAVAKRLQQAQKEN
Description: affinity purification with mass spectrometry; co-IP of HKDC1 from HK2 cells; complexes on magnetic beads digested with trypsin; peptides identified on a Q Exactive and analysed with MaxQuant.

No constants are given. Whether binding was seen depends on the method and setting. In cells and extracts the contact can be indirect. A yes stands for co-enrichment or nearness to the bait. Other partners may have been found.

Turning to ATPB (from UniProt P06576 48-529), the binding entry is reported as “binds”.
